Assay results as given in patent US20090076571A1, “MRI-Guided Photodynamic Therapy For Cancer” (priority 2004, published 2009).
Some of these results come from one statement about several compounds together.

System: MDA-MB-231 human breast carcinoma xenograft tumor
Assay: Contrast-enhanced MR imaging of tumor-bearing mice after injection of polymer conjugates
Format: in vivo, female athymic nu/nu mice
Details: 18 hours post injection; semi-quantitative evaluation
Experimental: Female athymic nu/nu mice were purchased from NCI (Frederick, Md.) at the age of 6 weeks. To generate tumor models, each mouse was injected subcutaneously with 2×10^6 MB-231 cells in 100 μl of culture media mixed with 100 μl of BD MATRIGEL, a solubulized basement membrane preparation extracted from EHS mouse sarcoma, in the flank region. Magnetic resonance imaging and photodynamic therapy studies were carried out at an average tumor size of 25-40 mm^3.
MR imaging was performed on a Siemens Trio 3T MRI scanner. The animals were anesthetized by intra-peritoneal or intra-muscular injection of the anesthetic (mixture of ketamine—80 mg/kg body weight and xylazine—12 mg/kg body weight).
For imaging purposes, the animals were placed in the human wrist coil and pre-contrast images (prior to the injection of the polymer chelate system containing the drug and the contrast agent) were obtained using a 3D FLASH (Fast Low Angle Shot) sequence.
After obtaining the pre-contrast images, the macromolecular complexes were injected at a dose of 0.09 mmol Gd/kg body weight and 6 mg/kg of Mce6 by tail vein injection. […]
Increase in Signal intensity of tumor for both groups as compared to precontrast at 2 hours is 100%. […] Quantitative evaluation of signal intensities using IDL was performed to corroborate the data obtained from semi-quantitative analysis.

Substance | Signal intensity of tumor higher than precontrast
Gd (III)-DOTA-linker-PLGA [Pol2] | at least 30%
Gd (III)-DOTA-linker-PLGA-Mce6 [Pol1] | at least 30%
